These are yes or no findings as the source states them, for the method shown. For some of these results: Binding seen in cells or lysates may run through a third protein. Some binding calls cover weakened binding; strength is not graded here.

Protein sequences, listed by entry. Tags and fused reporters are not part of them.
UniProt P61088: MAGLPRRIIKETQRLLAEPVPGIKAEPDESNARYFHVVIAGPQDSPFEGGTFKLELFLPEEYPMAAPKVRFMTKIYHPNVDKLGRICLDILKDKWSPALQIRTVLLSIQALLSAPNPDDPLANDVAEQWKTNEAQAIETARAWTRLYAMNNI
UniProt P22314: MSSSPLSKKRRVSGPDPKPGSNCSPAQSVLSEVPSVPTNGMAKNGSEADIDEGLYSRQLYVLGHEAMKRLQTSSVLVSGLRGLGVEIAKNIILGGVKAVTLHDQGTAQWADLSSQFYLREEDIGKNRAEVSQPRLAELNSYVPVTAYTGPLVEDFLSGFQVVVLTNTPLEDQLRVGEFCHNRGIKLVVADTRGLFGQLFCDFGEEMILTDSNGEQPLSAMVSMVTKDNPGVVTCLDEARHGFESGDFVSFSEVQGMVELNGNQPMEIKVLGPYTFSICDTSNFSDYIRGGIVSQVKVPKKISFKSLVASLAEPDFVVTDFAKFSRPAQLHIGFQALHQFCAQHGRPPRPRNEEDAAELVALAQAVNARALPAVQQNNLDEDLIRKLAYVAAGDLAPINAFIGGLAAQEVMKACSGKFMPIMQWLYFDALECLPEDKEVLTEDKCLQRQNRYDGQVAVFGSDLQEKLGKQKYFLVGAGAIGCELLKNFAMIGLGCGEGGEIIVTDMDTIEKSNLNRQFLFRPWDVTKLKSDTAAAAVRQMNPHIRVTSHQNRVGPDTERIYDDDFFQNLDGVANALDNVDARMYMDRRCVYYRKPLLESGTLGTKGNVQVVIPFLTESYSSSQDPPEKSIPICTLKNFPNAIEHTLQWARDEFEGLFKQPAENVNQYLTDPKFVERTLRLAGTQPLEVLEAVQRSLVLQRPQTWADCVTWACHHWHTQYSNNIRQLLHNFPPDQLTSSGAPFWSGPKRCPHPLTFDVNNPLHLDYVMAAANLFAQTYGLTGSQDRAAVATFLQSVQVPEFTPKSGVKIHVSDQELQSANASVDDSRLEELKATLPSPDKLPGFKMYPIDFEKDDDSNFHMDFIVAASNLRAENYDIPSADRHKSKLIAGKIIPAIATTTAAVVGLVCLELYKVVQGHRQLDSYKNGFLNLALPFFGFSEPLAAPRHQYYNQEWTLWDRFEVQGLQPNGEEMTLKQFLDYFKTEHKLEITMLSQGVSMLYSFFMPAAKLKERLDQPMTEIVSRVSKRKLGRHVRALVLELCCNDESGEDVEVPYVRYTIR

Assay [1] deals with T1, N-Biotin EphB4 958-987 (synthetic EphB4 C-tail peptide) (human).
T1 sequence (peptide, biotin on the N-terminus (Biotin-NH-)): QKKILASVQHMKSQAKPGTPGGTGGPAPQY
Kind of assay: pull-down; PTM-enhanced pull-down: 50 ug N-biotin EphB4 958-987 peptide on streptavidin magnetic beads; 750 ug whole MSTO211H cell extract (cells with or without IGF-II neutralizing antibody), 10 mM Tris pH 7.5, 4 mM ATP, 2 mM MnCl2, 1 ug recombinant ubiquitin, 0.025% NP40; 48 h at 4 C; western …; only the target purified.

In assay [2] the target is EphB4 (Eph receptor B4), native protein of MSTO211H cells (human (endogenous in MSTO211H)) (UniProt P54760). The assay can be described thus: ELISA; native EphB4 captured from cross-linked whole cell extracts of MSTO211H at a non-limiting target/capturing antibody rate; cdc48/p97 detected; cells with or without IGF-II neutralizing antibody, MG132 (200 nM) or ML240 (200 nM).

Turning to “UBE2N (E2 ubiquitin ligase), native protein of MSTO211H cells (from UniProt P61088 1-152) (enzyme)”, the binding result in assay [1] is on record as “binds”.

Consider “UBA1 (E1 ubiquitin ligase), native protein of MSTO211H cells (from UniProt P22314 1-1058) (enzyme)”, for which the binding entry in assay [1] is recorded as “binds”. Turning to “Cdc48/p97 (Valosin-containing protein, VCP), native protein of MSTO211H cells (from UniProt P55072 1-806) (enzyme)”, the binding result in assay [1] and in assay [2] was “binds” throughout.

The values above are taken from PMC10139083.
